Read-outs that look alike come from different tables or passages of the source. No constants are given. Whether binding was seen depends on the method and setting. Some binding calls cover weakened binding; strength is not graded here. Tags and fused reporters may be left off the sequences shown.
Legend:
Assay in all cases: two-hybrid
[1] = target: T1, BD-Chinmo^native (Drosophila melanogaster) (UniProt Q9VQ30)
T1 sequence: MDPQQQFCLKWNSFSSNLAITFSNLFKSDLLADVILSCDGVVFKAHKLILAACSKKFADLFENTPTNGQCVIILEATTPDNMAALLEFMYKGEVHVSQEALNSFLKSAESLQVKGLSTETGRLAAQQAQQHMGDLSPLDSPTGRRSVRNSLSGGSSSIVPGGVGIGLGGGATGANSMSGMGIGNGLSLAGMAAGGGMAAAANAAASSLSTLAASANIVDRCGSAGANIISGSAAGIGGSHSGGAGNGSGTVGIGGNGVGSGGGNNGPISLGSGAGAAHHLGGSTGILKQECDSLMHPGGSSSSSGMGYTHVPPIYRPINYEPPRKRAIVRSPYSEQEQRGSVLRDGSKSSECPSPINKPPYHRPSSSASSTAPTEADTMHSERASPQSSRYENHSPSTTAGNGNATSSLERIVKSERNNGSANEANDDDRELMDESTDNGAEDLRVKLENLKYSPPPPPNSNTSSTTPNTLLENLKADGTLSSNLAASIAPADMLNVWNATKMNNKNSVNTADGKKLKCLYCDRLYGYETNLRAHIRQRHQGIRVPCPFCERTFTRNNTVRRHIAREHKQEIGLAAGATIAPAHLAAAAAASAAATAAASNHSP

Amino acid sequences for entries named in this document (tags omitted).
UniProt Q12306: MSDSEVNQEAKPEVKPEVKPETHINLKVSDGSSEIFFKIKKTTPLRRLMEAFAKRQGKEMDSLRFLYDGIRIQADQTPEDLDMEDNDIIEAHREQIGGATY

[2] = target: T2, BD-Chinmo^STOP (Drosophila melanogaster) (UniProt Q9VQ30)
T2 sequence: T1 sequence

[3] = target: T1, BD-Chinmo^native (Drosophila melanogaster); remark: listed apart in the source
[4] = target: T2, BD-Chinmo^STOP (Drosophila melanogaster); remark: listed apart in the source
[5] = target: T1, BD-Chinmo^native (Drosophila melanogaster); remark: listed apart in the source
[6] = target: T2, BD-Chinmo^STOP (Drosophila melanogaster); remark: listed apart in the source

binding [1]: binds
binding [2]: binds
binding [3]: binds
binding [4]: binds
binding [5]: binds
binding [6]: binds
Substance: AD-SUMO (ScSmt3 from yeast) (from UniProt Q12306 1-101)

From article doi:10.1101/2021.11.03.467147
